Like-named read-outs stand apart in the source and are kept apart here. Results are given in words; binding and its absence hold for the method and conditions named. In cells and extracts the contact can be indirect. For some assays here: Binding calls can cover weak binding; strength is not graded here.
Key:
Assay in all cases: pull-down
SFB-XRCC1 ΔB2D (human) [1] = biological target: SFB-XRCC1 ΔB2D (human) (UniProt P18887)
[2] = biological target: SFB-tagged truncated XRCC1, N-terminal domain (NTD) (human)
[3] = biological target: SFB-tagged truncated XRCC1, BRCT I domain (B1D) (human)
[4] = biological target: SFB-tagged truncated XRCC1, BRCT II domain (B2D) (human)
[5] = biological target: GST-tagged truncated XRCC1, BRCT II domain (human)
SFB-XRCC1 ΔB1D (human) = SFB-XRCC1 ΔB1D (human) (UniProt P18887)
[6] = biological target: GST-tagged truncated XRCC1, BRCT I domain (human)
SFB-XRCC1 ΔB2D (human) [7] = biological target: SFB-XRCC1 ΔB2D (human) (UniProt P18887); remark: listed apart in the source

Sequences of proteins named here, by UniProt entry; tags and fusion partners are left off. A change or cut given only in a name is not applied to a line headed by its entry.
UniProt P18887: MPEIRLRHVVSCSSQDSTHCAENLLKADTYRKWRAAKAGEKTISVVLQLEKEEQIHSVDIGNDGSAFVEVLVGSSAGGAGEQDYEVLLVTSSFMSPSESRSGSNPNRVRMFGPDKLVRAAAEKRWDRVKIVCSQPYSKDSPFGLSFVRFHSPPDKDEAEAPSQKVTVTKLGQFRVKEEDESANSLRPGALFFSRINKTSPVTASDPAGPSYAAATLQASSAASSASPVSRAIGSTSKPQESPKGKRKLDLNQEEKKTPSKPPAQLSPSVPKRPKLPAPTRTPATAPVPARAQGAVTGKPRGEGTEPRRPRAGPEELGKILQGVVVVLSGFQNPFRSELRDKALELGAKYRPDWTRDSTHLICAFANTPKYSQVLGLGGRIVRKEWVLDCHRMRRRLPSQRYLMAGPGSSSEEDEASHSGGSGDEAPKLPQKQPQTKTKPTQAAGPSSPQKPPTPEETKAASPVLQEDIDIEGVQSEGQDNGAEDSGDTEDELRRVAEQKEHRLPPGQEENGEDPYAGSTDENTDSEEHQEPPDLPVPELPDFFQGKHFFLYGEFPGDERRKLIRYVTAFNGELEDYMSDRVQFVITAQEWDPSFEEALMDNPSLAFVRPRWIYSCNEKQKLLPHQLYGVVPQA
UniProt Q92830: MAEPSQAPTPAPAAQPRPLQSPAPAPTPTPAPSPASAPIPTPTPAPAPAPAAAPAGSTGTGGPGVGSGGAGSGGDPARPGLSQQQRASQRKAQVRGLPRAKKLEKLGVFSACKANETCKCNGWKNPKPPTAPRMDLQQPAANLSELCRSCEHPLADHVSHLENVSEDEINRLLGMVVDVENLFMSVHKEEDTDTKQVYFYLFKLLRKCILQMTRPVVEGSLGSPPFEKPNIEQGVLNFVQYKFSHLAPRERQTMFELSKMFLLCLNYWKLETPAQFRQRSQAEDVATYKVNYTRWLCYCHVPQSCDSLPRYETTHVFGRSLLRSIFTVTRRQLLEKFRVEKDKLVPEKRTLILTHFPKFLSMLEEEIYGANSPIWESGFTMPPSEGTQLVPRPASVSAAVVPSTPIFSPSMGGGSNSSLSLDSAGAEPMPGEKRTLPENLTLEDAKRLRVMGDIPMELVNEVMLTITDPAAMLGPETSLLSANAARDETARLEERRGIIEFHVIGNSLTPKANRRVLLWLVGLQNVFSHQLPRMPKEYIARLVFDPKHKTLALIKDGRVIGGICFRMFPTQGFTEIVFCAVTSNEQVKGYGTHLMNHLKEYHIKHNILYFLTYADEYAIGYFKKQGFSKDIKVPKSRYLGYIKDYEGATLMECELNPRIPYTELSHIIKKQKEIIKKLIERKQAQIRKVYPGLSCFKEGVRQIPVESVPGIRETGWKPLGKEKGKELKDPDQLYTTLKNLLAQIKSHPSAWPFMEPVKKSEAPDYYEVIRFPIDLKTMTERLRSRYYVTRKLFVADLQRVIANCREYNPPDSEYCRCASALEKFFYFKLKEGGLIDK

binding (SFB-XRCC1 ΔB2D (human) [1]) | binding [2] | binding [3] | binding [4] | binding [5] | binding (SFB-XRCC1 ΔB1D (human)) | binding [6] | binding (SFB-XRCC1 ΔB2D (human) [7]) | Molecule
binds |  |  |  |  |  |  |  | GCN5 (human, endogenous) (from UniProt Q92830 1-837)
 | binds | binds | binds | binds | binds | binds | no binding | TADA2B (human, endogenous) (protein, UniProt Q86TJ2 1-420) MAELGKKYCVYCLAEVSPLRFRCTECQDIELCPECFSAGAEIGHHRRYHGYQLVDGGRFTLWGPEAEGGWTSREEQLLLDAIEQFGFGNWEDMAAHVGASRTPQEVMEHYVSMYIHGNLGKACIPDTIPNRVTDHTCPSGGPLSPSLTTPLPPLDISVAEQQQLGYMPLRDDYEIEYDQDAETLISGLSVNYDDDDVEIELKRAHVDMYVRKLKERQRRKNIARDYNLVPAFLGKDKKEKEKALKRKITKEEKELRLKLRPLYQFMSCKEFDDLFENMHKEKMLRAKIRELQRYRRNGITKMEESAEYEAARHKREKRKENKNLAGSKRGKEDGKDSEFAAIENLPGFELLSDREKVLCSSLNLSPARYVTVKTIIIKDHLQKRQGIPSKSRLPSYLDKVLKKRILNFLTESGWISRDAS
